Reference: patent US11806314B2, “PDE5 inhibitor powder formulations and methods relating thereto” (Respira Therapeutics, Inc., priority 2013, dated 2023)
Structures can show the parent of a compound that is named as a salt.

Assay: Aerosol performance, Next Generation Impactor (NGI) with powder deaggregator and RS01 capsule piercing mechanism
Assay type: physicochemical
Conditions: pure drug (100% API)
Excerpt: There are several inertia sampling apparatuses that can be used to assess aerosol performance of dry powder formulations. (<601> Aerosols, Nasal Sprays, Metered-Dose Inhalers, and Dry Powder Inhalers Monograph, in USP 29-NF 24 The United States Pharmacopoeia and The National Formulary: The Official Compendia of Standards. 2006, The United States Pharmacopeial Convention, Inc.: Rockville, Md. p. 2617-2636 (“USP<601>”).) These apparatus classify aerosol particles on the basis of the particles' aerodynamic diameter. Each stage of the impactor includes a single or series of nozzles with specific cutoff size. Particles are entrained into the apparatus. […] The aerodynamic size distribution of API can be assessed by collecting the deposited API mass and the ED %, RF %, FPF % and MMAD (μm) can be calculated from the API deposition pattern. The emitted dose fraction (ED (%); Eq. 4) is determined as the percentage powder mass emitted from the initial dosing chamber/capsule relative to the total dose in capsules (nominal dose) (TD). […] Fine particle fraction (FPF (%); Eq. 5) is expressed as a percentage of fine particle dose (FPD) below a certain aerodynamic cutoff size to ED. […]

SMILES	% Recvy (3 mg dose)	% Recvy (10 mg dose)
CCCc1nc(C)c2c(=O)[nH]c(-c3cc(S(=O)(=O)N4CCN(CC)CC4)ccc3OCC)nn12 [Var(HCl)2•xH2O (rehydrated), dihydrochloride hydrate]	100.1%	
CCCc1nc(C)c2c(=O)[nH]c(-c3cc(S(=O)(=O)N4CCN(CC)CC4)ccc3OCC)nn12 [VarBase, 2-[2-ethoxy-5-(4-ethylpiperazin-1-yl)sulfonylphenyl]-5-methyl-7-propyl-1H-imidazo[5,1-i][1,2,4]triazin-4-one]		115.2%
